Laboratory results taken from article PMC3465305.
For at least one entry, the source does not settle the construct or the ends of the probe. A weaker result is weaker than the reference pair of the same experiment. At least one verdict was read from the data and is not stated in words by the source.

Amino acid sequences for entries named in this document (tags omitted). A change or cut given only in a name is not applied to a line headed by its entry.
UniProt P0AFJ5: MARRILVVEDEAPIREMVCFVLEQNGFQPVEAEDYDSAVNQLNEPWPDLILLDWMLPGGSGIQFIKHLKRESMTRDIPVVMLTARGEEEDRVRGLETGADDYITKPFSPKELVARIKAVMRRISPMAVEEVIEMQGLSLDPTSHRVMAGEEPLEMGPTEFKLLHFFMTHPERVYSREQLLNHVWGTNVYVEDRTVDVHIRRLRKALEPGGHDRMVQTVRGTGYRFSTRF

These sequences were tested against PhoB-His(6x), phosphorylated (UniProt P0AFJ5) (assay: EMSA). Settings: acetylphosphate-treated PhoB, 0-35 uM, 10 mM Mg2+; 20 mM Tris-HCl pH 7.0, 50 mM NaCl, 1 mM DTT, 10 mM MgCl2, 100 ug/ml BSA, 0.5 ug/ml poly dI-dC, 20 fmol DNA, 37 C 15 min; 6% native PAGE in 0.5x TBE; recombinant protein; label: 3'-biotin.

Sequence	binding result
ATGTTATAGAAACAGCCTGGTTCATTACAAAATTGTAATGCTGCTGTAAGGTTACCCTGG (double strand) [yedX site]	binds
CGATTTATCCATGATCGAATTGTGACATTTGTCATACAACGAATAGGTTTTGTACTTACT (double strand) [yegH site]	binds
TGAGAAATCGCCACATTCGGCATGACAACATTGTGAAACCCGGCATTAGATGTTAGAAAA (double strand) [yhjC site]	binds more weakly
TCAACAACTCATCCATAAATTTTGCATAATTAATGTAAAGACCAGGCTCGCCAGTAACGC (double strand) [mipA site]	binds
TGGCAATCGCTTATTGGCAAAATGACAATTTTGTCATTTTTCTGTCACCGGAAAATCAGA (double strand) [cusR site]	binds
CCGAATATTGGGTTTAGTCTTGTTTCATAATTGTTGCAATGAAACGCGGTGAAACATTGC (double strand) [prpR site]	binds
TCTGTGAAATGTATTTTTATTGTTGCATTTGTGTTGCAATAAACGAAGCTAATGAGCCTG (double strand) [feaR site]	binds
GCGTAACTGCCGGGTTATTGCTTGTCACAAAAAAGTGGTAGACTCATGCAGTTAACTCAC (double strand) [ydfH site]	binds more weakly

Same assay, conditions: acetylphosphate-treated PhoB, 10 mM Mg2+; 20 mM Tris-HCl pH 7.0, 50 mM NaCl, 1 mM DTT, 10 mM MgCl2, 100 ug/ml BSA, 0.5 ug/ml poly dI-dC, 20 fmol DNA, 37 C 15 min; 6% native PAGE in 0.5x TBE; recombinant protein; label: 3'-biotin

Sequence	binding result
GTTTTCGTTATCAGATAATCGATGTCAAAAAAATGCCACTCGGCAGCGTCACCAAGATCT (double strand) [cof coding site]	binds
TTGCGATACGGTATTTCTTATCTGTAATAAAAATTTCACCCGCAGACTTCTGTTATTCAA (double strand) [yddV coding site]	binds
TATCCGCCACGGGGAGTAATAGTCACAGATATATTAATGATAATCACTATCACCATATCG (double strand) [yahA coding site]	binds more weakly
